The values below come from paper PMC5436757.

By UniProt entry, the sequences of proteins in these tests, tags left out. Where a name states a change or a piece, a line headed by the entry shows the natural chain unless it says otherwise.
UniProt Q9RYE6: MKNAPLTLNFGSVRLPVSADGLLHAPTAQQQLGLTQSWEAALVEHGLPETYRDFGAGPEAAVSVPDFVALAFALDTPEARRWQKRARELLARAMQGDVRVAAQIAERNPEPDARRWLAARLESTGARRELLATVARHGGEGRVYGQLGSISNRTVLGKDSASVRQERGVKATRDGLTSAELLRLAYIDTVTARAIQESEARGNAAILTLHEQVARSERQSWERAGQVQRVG

This data set concerns the target DdrC (Deinococcus radiodurans R1 ATCC 13939) (UniProt Q9RYE6). Put plainly: EMSA. Conditions: no shift at 40 nM DdrC, lower affinity than ss 67-mer, 3.3 nM DNA, DdrC up to 2.8 uM; Buffer A: 40 mM Tris-HCl pH 7.8, 5 mM MgCl2, 1.5 mM DTT, 50 mM NaCl, 12% glycerol; 4 C (15 min stated for plasmid/viral DNA); gels run at 4 C; recombinant protein; residues 1-231; protein details: C-terminal 6xHis (pET26b).

The comparison behind a weaker result is the experiment's own reference, which may not be listed here.

“CTGTTTAAGAAATTCACCTCGAAAGCAAGCTGATAAACCGATACAATTAAAGGCTCCTTTTGGAGCC (double strand) [oligo-67 ds]”: the binding result was “binds more weakly”.
